Measurements: patent US20170189504A1, “NOVEL PEPTIDES AND COMBINATION OF PEPTIDES FOR USE IN IMMUNOTHERAPY AGAINST VARIOUS CANCERS” (immatics biotechnologies GmbH, priority 2015, published 2017)

Tests used:
source genes (mRNA) [1] = test: Expression profiling of source genes by in-house RNASeq of tumor and normal tissues (Table 18, FIG. 2); design: species or system human; key: very highly over-expressed in tumors compared to a panel of normal tissues (+++); highly over-expressed in tumors compared to a panel of normal tissues (++); over-expressed in tumors compared to a panel of normal tissues (+); conditions: source gene of peptide; for Expression score GB: glioblastoma (N = 24) vs panel of normal tissues; for Expression score NHL: non-Hodgkin lymphoma (N = 10) vs panel of normal tissues; for Expression score NSCLC: non-small cell lung cancer (N = 11) vs panel of normal tissues
HLA-A*02 = test: Identification and relative LC-MS quantitation of HLA-A*02-presented tumor-associated peptides on tissue samples (presentation profiles, Tables 13A, 13B, 15, FIG. 1); design: species or system human; key to Presentation score NHL / Presentation score CLL / Presentation score BRCA / Presentation score AML / Presentation score GB / Presentation score NSCLC / Presentation score GBC_CCC / Presentation score UEC / Presentation score MEL / Presentation score OSCAR / Presentation score GC / Presentation score UBC / Presentation score OC / Presentation score RCC / Presentation score CRC / Presentation score PCA / Presentation score HCC / Presentation score PC / Presentation score SCLC: specifically presented on tumors (++++); very highly over-presented on tumors compared to a panel of normal tissues (+++); highly over-presented on tumors compared to a panel of normal tissues (++); over-presented on tumors compared to a panel of normal tissues (+); conditions: for Presentation score NSCLC: non-small cell lung cancer (N = 90) vs panel of normal tissues (N = 262); for Peptide Presentation on cancer entities: Table 13A, HLA-A*02-binding tumor-associated peptides, cancer entities on which the peptide was found presented
source genes (mRNA) [2] = test: Gene and exon expression of source genes, TCGA tumor samples compared with normal tissue samples (Lonsdale, 2013) (Table 17); design: species or system human; conditions: cutoff more than 2-fold above highest 75% percentile of normal tissue samples; for Target coverage: over-expression category of source gene, GBM: Glioblastoma multiforme (N = 169); for Target coverage: over-expression category of source gene, LUAD: Lung adenocarcinoma (N = 517); for Target coverage: over-expression category of source gene, LUSC: Lung squamous cell carcinoma (N = 503)

Substance	Expression score GB (source genes (mRNA) [1])	Expression score NHL (source genes (mRNA) [1])	Expression score NSCLC (source genes (mRNA) [1])	Presentation score NSCLC (HLA-A*02; HLA-A*02 peptides)	Peptide Presentation on cancer entities (HLA-A*02)	Target coverage: over-expression category of source gene, GBM (source genes (mRNA) [2])	Target coverage: over-expression category of source gene, LUAD (source genes (mRNA) [2])	Target coverage: over-expression category of source gene, LUSC (source genes (mRNA) [2])	other results
57: peptide found in BCAT1 (gene looked up) (TVFTDHMLTV; listed as Homo sapiens) [compound 57]	++	+	++	++++	NSCLC, OSCAR, OC, NHL	C (>=5% of tumors above the cutoff, but <20%)	C (>=5% of tumors above the cutoff, but <20%)	C (>=5% of tumors above the cutoff, but <20%)	Expression score OC (source genes (mRNA) [1]; ovarian cancer (N = 12) vs panel of normal tissues): +++; Expression score UEC (source genes (mRNA) [1]; uterine cancer (N = 10) vs panel of normal tissues): +++; Presentation score OSCAR (HLA-A*02; HLA-A*02 peptides, esophageal cancer, including cancer of the gastric-esophageal junction (N = 17) vs panel of normal tissues (N = 262)): ++++; Presentation score NHL (HLA-A*02; HLA-A*02 peptides, non-Hodgkin lymphoma (N = 18) vs panel of normal tissues (N = 262)): ++++; Presentation score OC (HLA-A*02; HLA-A*02 peptides, ovarian cancer (N = 20) vs panel of normal tissues (N = 262)): ++++; Target coverage: over-expression category of source gene, LAML (source genes (mRNA) [2]; Acute Myeloid Leukemia (N = 173)): B (>= 20% of tumors above the cutoff, but <50%); Target coverage: over-expression category of source gene, DLBC (source genes (mRNA) [2]; Lymphoid neoplasm diffuse large B-cell lymphoma (N = 48)): C (>=5% of tumors above the cutoff, but <20%); Target coverage: over-expression category of source gene, OV (source genes (mRNA) [2]; Ovarian serous cystadenocarcinoma (N = 309)): B (>= 20% of tumors above the cutoff, but <50%); Target coverage: over-expression category of source gene, UCEC (source genes (mRNA) [2]; Uterine corpus endometrial carcinoma (N = 546)): C (>=5% of tumors above the cutoff, but <20%)
59: peptide found in TNC (gene looked up) (KLLDPQEFTL; listed as Homo sapiens) [compound 59]	+++	+	+++	++++	GB, NSCLC	A (>=50% of tumors above the cutoff)	C (>=5% of tumors above the cutoff, but <20%)	C (>=5% of tumors above the cutoff, but <20%)	Expression score OSCAR (source genes (mRNA) [1]; esophageal cancer incl. gastric-esophageal junction (N = 11) vs panel of normal tissues): +++; Expression score UBC (source genes (mRNA) [1]; urinary bladder cancer (N = 10) vs panel of normal tissues): +; Presentation score GB (HLA-A*02; HLA-A*02 peptides, glioblastoma (N = 41) vs panel of normal tissues (N = 262)): ++++; Target coverage: over-expression category of source gene, ESCA (source genes (mRNA) [2]; Esophageal cancer (N = 185)): B (>= 20% of tumors above the cutoff, but <50%); Target coverage: over-expression category of source gene, LGG (source genes (mRNA) [2]; Lower grade glioma (N = 534)): B (>= 20% of tumors above the cutoff, but <50%); Target coverage: over-expression category of source gene, SKCM (source genes (mRNA) [2]; Skin cutaneous melanoma (N = 473)): B (>= 20% of tumors above the cutoff, but <50%)

For some of these results: Expression values are those of the mRNA of the gene that encodes the peptide; a gene is named only where it was looked up.
